# Data: PubChem BioAssay AID1347423 (Functional Genomics Laboratory (NCATS/FGL), 2020)
# Screen size: about 52,000 sequences; about 210 (0.4%) were called active.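 The calls were made as follows: active = gene whose silencing raises cell survival under the drug, median off-target-corrected z-score across its silencing RNAs 2 or more; inactive = the rest.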 The list shows a part of the results.
# Assay: Resistance to Poly (ADP-Ribose) Polymerase inhibitor: Gene Identification via Genome-wide siRNA Screen
# Conditions: mouse BRCA2 R2336H ES cells, olaparib, CellTiter-Glo viability; stronger effect = higher value
# Procedure, shortened: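 Mouse BRCA2 R2336H ES cells were reverse-transfected with siRNA (20 nM final), treated at 48 h with 500 nM olaparib, and read by CellTiter-Glo after 72 h. Scores: MAD-based z per siRNA, median per gene, seed off-target correction.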
row,Sequence,z-score
1,GGGAUUUUGCUGAAACUCATT against Klhl12,inactive: -0.864
2,GGAAGAGGAGAGGAAGAAGTT against Dncic1,inactive: 0.692
3,GGCAAAGGACUUCAUGGCUTT against B4galt4,inactive: 1.72
4,GGGUUUUGCUACAUCAAUGTT against Pgm2l1,inactive: 0.337
5,GGUUUAUCCUACAGCGAAGTT against Plpcd,inactive: -0.15
6,GCGGUGUGUUUCAAUAGUUTT against Clecsf10,inactive: -0.536
7,GGACAGUGGAAGGAAUCCATT against 2310033P09Rik,inactive: 0.15
8,GCUCCUAUCCACAAUGCUGTT against D930005D10Rik,inactive: 1.51
9,GCUCUUUCUAGCUUAUGAUTT against 2810405I11Rik,inactive: -0.716
10,CCACAUUGGUACUAGUCAATT against 4932442K08Rik,inactive: -0.713
11,GGGACAAUAAAACCAACACTT against A730098P15,inactive: -0.686
12,CCGUGAAUUUGGAUGAUGGTT against T2,inactive: -1.3
13,GGCUGUGCUGAUCACCUACTT against 0610011F06Rik,inactive: 0.462
14,GGAGCUUCUGGAGUAUUAUTT against 2700091N06Rik,inactive: -0.611
15,GAAAGGAAAGCUAGCCAUGTT against LOC434459,inactive: 0.869
16,GCUGUACGUUGUAUGUUGGTT against Ncbp2,inactive: 1.02
17,GCCAUCCUUGUGCUAAGAGTT against Ifna4,inactive: -0.858
18,GGGAAUAGAUCUGAACCGUTT against Cpe,inactive: -2.12
19,GGCUUAUUGGCUUGACCAATT against 4933417E01Rik,inactive: 1.31
20,GGGUAACCACAGAGAGAAUTT against Slc12a4,inactive: -0.95
21,GGUAAACAGAGGUUUUAAGTT against Golga3,inactive: 1.26
22,GGUGUUUGUUAACUACUCGTT against D430039N05Rik,inactive: -0.187
23,CGGACAACAACCUCUGCCATT against Pycrl,inactive: -1.31
24,GGGCAAGCAGUUUUUAUGGTT against Mcph1,inactive: 0.0351
25,GCCACAAGCAAUAGUCAGATT against Gm867,inactive: 0.738
26,GGCACAAGAAAUUUGAUGATT against Gpc6,inactive: -0.132

row,Sequence,z-score
1,CCCAAUUCUUUCAACCCAGTT against Caln1,inactive: 1.18
2,GCACAGAGCCUAAUCAUUCTT against Oog2,inactive: -0.115
3,CCUCUAGCAUUAGAAACACTT against Pax3,inactive: 0.153
4,GGUUAUUACGUAGUUGGUATT against Mcp,inactive: -0.714
5,GGAGAAAACUAAAUAAGCATT against 4930579A11Rik,inactive: 0.578
6,GCUACUCUUAUUCUACUUCTT against Slc29a3,inactive: 0.309
7,GGUUUUUUUUUCGGCUUACTT against Cnga3,inactive: 0.304
8,CGCGUAUUUGAGAGAUUCUTT against Ckmt2,inactive: 0.253
9,GCAAAGUGGUUAUUUGAAATT against Cmya3,inactive: 0.289
10,GGAGUUCCUGAUUUACGUCTT against 4930511O11Rik,inactive: -0.549
11,GGCGACAUAUUUUUCAAACTT against Fmn,inactive: 1.16
12,GGAUAAAAGCAGAUAUGACTT against Hapln1,inactive: -0.352
13,GGAUGUGCGUUCUCACAACTT against Suox,inactive: -0.476
14,GCUGUGUGUGAUUGAUUGGTT against 8430406I07Rik,inactive: 0.358
15,GCACAUUCAGAUGAGGACUTT against 1200013I08Rik,inactive: 0.366
16,CGAUGGAUCGCUUCCUACATT against 4933405I11Rik,inactive: -1.39
17,CCCAGCUGAAGUCUCAAAUTT against Cd209c,inactive: 0.819
18,GCAUCGUGUGUGUAGAUAATT against AB030190,inactive: -1.25
19,CGAUGCUGUUCUUCAAUGUTT against 6330509G02Rik,inactive: -1.85
20,GGAAAUCCGGCUCAUUGAUTT against Aass,inactive: -1.76
21,GGCAUCCUUGGUGUUUGUATT against 5830426I05Rik,inactive: -2.26
22,GCCUUUGGAAGUUCAGAACTT against Ubce7ip1,inactive: 0.325
23,GGAGCUCUUUGAGUACAUCTT against 1500035H01Rik,inactive: 1.18
24,GGAUUCUCGGUGAAAAAGATT against 2310010B21Rik,inactive: -0.667
25,GCUGUACUAUCUUUUUCAUTT against Olfr165,inactive: 1.07
26,GGUUGUUAGGAAUCGAUCCTT against Rps26,inactive: -2.9

# A few values from the list:
# GCACAGAGCCUAAUCAUUCTT against Oog2 – z-score: inactive: -0.115
# GGUUGUUAGGAAUCGAUCCTT against Rps26 – z-score: inactive: -2.9
# GCAAAGUGGUUAUUUGAAATT against Cmya3 – z-score: inactive: 0.289
# GGAGUUCCUGAUUUACGUCTT against 4930511O11Rik – z-score: inactive: -0.549
# GGUUUUUUUUUCGGCUUACTT against Cnga3 – z-score: inactive: 0.304
# CGAUGGAUCGCUUCCUACATT against 4933405I11Rik – z-score: inactive: -1.39

# As a short view, part of the list above:
row,Sequence,z-score
3,CCUCUAGCAUUAGAAACACTT against Pax3,inactive: 0.153
4,GGUUAUUACGUAGUUGGUATT against Mcp,inactive: -0.714

# (continued)

row,Sequence,z-score
1,GGAUCUUAUUUCAGAGCCCTT against Trhr2,inactive: -0.417
2,GCAUUUAUUUGGUGGUGUUTT against Olfr1245,inactive: 1.09
3,GGAUACAUCAGUUUGUAGATT against Abhd6,inactive: 0.0263
4,GGGUCAAGAAGAAUCUUCUTT against Ppp1r14d,inactive: 0.572
5,GGACCAGCCGAAAAUUACCTT against Cnksr2,inactive: 0.696
6,GGCUACUCGGCCCUCUGUUTT against 4930404N11Rik,inactive: -0.973
7,GGCAAUUUAAGAAAGAUGUTT against BC027174,inactive: -0.316
8,GCAAGGCAUUUUUCUAUUUTT against Sacy,inactive: -0.239
9,GGAAGAGCUUCCCUGUCUATT against C730027E14Rik,inactive: -2.49
10,GCAUCCGUUCUCCCUUAUGTT against Mrpl4,inactive: -1.27
11,GGAUGUUAUUCAGUUUUCATT against ICRFP703B1614Q5.5,inactive: 0.664
12,CCAAAUACCAUUUCCUACATT against Olfr495,inactive: 0.0794
13,GGCAGAUUUGGCAAGACAATT against A730008L03Rik,inactive: -1
14,GCUCAACGAAACAAUACCGTT against Il2rb,inactive: 1.17
15,GGAUCGAAAUAGCUCAUGCTT against Hoxa5,inactive: 1.27
16,GGGUUAUAACUCCUAUUUCTT against Apex2,inactive: 0.272
17,GGCCUUAAUUAGCCUCUCUTT against A630038D02,inactive: -1.01
18,GGUGACCAAACUUAUCUACTT against Ercc2,inactive: 0.163
19,GGAAGCAGUCAGAGAAGAATT against 1190017O12Rik,inactive: 0.848
20,CCCUUAGUUUGACACACUUTT against Tal2,inactive: 0.519
21,GGAAACUGGACAAGUCUUCTT against E130307M08Rik,inactive: -2.31
22,GGGAACUGUUCCAUCUUGCTT against Olfr606,inactive: 0.806
23,GGGAAUUCCUUUAUUGAUCTT against Dhrs9,inactive: 1.96
24,GCUUUGGUAGAUCCUAAUATT against Ms4a7,inactive: 1.02
25,GGCUUGAUCAUGACUUAAATT against Armc8,inactive: 1.32
26,GGAGGAAUUUGAGAAGAAUTT against Lasp1,inactive: -0.939

row,Sequence,z-score
1,GGAACCAAUAAAUCUGUGCTT against Rfxank,inactive: 0.27
2,GGUAUGCAAGUGGAAUCUGTT against 1300018J18Rik,inactive: -1.29
3,GGAGGAAGAUGAGUUCUACTT against Tcfl1,inactive: -0.34
4,GCUGGCAACGUGCUUAUGATT against Stk10,inactive: -0.919
5,CCUACUUGAUAUUUUUGGUTT against AU022870,inactive: 0.941
6,GGAACUUUGCUUUGAUGAUTT against Myo9b,inactive: 0.233
7,GGACAUAGUCUGAGGCAAGTT against 2310016E02Rik,inactive: -2.77
8,CCAUUAAAUGCUGUUGUACTT against Dctn2,inactive: -0.036
9,GGAGAGUUUUCCAGAAUAUTT against Olfr148,inactive: -0.732
10,GGGCCCAUUUUCAGAAAUGTT against Tagln3,inactive: 0.0108
11,GGGUUUUUGUGUACAAUGATT against 4932418K24Rik,inactive: -1.21
12,CGGACAUGACAAAACUAGATT against Eef1b2,inactive: 0.132
13,GGAGAGCUAUGUGGUGCUUTT against Wdr4,inactive: 3.83
14,GGACCUUAAGAAAACAAUGTT against Birc4,inactive: 1.1
15,GGCUGAUGUGGAAGGGAUGTT against Leftb,inactive: -1.95
16,GGAUUUGUGAAGCAGAUAATT against Tde1,inactive: -1.64
17,GGAAAAUCUAGAAGACAAUTT against Rwdd1,inactive: -0.564
18,GCUCAGAGCAUGUUGGUGGTT against Ripk5,inactive: -0.966
19,GGAAAUGCCCACUAAAUUUTT against Rpl7l1,inactive: -0.698
20,GGGUGUAUGAUCCAGUUAUTT against Olfr913,inactive: -1.72
21,GGUCUAUGUCCAAAAAGAATT against Als2cr13,inactive: 0.437
22,GCGAACCUGCUCACCCUUUTT against Tfcp2l4,inactive: -0.55
23,GGAACUUGACAUUGACAUATT against Klrb1d,inactive: 0.741
24,GCUCUCAGCAUCUUCUAUUTT against Tas2r124,inactive: -0.181
25,GGUUGACCCUGGAAUCUCUTT against 1110011D13Rik,inactive: -2.29
